Experimental data published in the supplement of paper PMC6078165.
± gives the standard deviation of the averaged measurements. Values are relative to the signal before dosing, not to a vehicle control; the signal also falls without drug.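 Labels refer to human fibroblasts, largely primary: uterine (C12385, HUF), lung (H6013), bone (Hs27A), adrenal (HADF), skin (WS1), plus mammary HMF and breast cancer-associated Hs343T. Cancer lines are basal-like or mesenchymal-like triple-negative breast cancer. The paper counts as hits responses shifting over 3x the replicate standard deviation. The tissue of the other fibroblasts is not given here.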

System: MDAMB231
Assay: relative JC-1 red fluorescence (viability) vs pre-drug, coculture with fibroblast (fraction); higher = more viable cancer cells
Details: 10 µM
Protocol: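 JC-1 labelled TNBC cells cocultured 1:1 (1,500 cells each) with CellTrace Violet stained primary or stromal fibroblasts in 384-well plates in FluoroBrite medium, treated with one of 42 anticancer drugs at 0.1, 1, 10 or 100 uM. JC-1 red fluorescence (mitochondrial integrity in cancer cells only) was read by plate reader every 8 h for 72 h. Values are normalised to each well's pre-drug value. The stock of one drug was tenfold lower, so its dose labels may be too high.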

O=C(CCCCCCC(=O)Nc1ccccc1)NO [Vorinostat]
relative JC-1 red fluorescence
Details | 8 h | 16 h | 24 h | 32 h | 40 h
coculture fibroblast: C12385 | 0.7646 ± 0.0045 | 0.718 ± 0.027 | 0.611 ± 0.011 | 0.635 ± 0.014 | 0.562 ± 0.022
coculture fibroblast: H6013 | 0.8671 ± 0.0086 | 0.7941 ± 0.00091 | 0.75 ± 0.017 | 0.702 ± 0.022 | 0.628 ± 0.043
coculture fibroblast: H6019 | 0.735 ± 0.03 | 0.655 ± 0.021 | 0.639 ± 0.018 | 0.594 ± 0.013 | 0.5792 ± 0.0021
coculture fibroblast: H6076 | 0.897 ± 0.028 | 0.806 ± 0.051 | 0.766 ± 0.061 | 0.743 ± 0.076 | 0.708 ± 0.082
coculture fibroblast: H6231 | 0.9068 ± 0.0064 | 0.81 ± 0.012 | 0.745 ± 0.021 | 0.701 ± 0.036 | 0.649 ± 0.05
coculture fibroblast: HADF | 0.889 ± 0.015 | 0.83 ± 0.045 | 0.782 ± 0.05 | 0.726 ± 0.052 | 0.664 ± 0.05
coculture fibroblast: HCFa | 0.865 ± 0.023 | 0.7897 ± 0.0074 | 0.734 ± 0.031 | 0.663 ± 0.043 | 0.572 ± 0.06
coculture fibroblast: HCPF | 0.8703 ± 0.0049 | 0.753 ± 0.017 | 0.6904 ± 0.0011 | 0.658 ± 0.013 | 0.6078 ± 0.0028
coculture fibroblast: HHSteC | 0.8709 ± 0.0069 | 0.809 ± 0.011 | 0.753 ± 0.03 | 0.696 ± 0.033 | –
coculture fibroblast: HMF | 0.871 ± 0.022 | 0.75 ± 0.044 | 0.689 ± 0.03 | 0.651 ± 0.019 | –
coculture fibroblast: HPFa | 0.9351 ± 0.0022 | 0.8633 ± 0.0015 | 0.81372 ± 0.00061 | 0.75 ± 0.0077 | –
coculture fibroblast: HUF | 0.82 ± 0.0091 | 0.671 ± 0.023 | 0.6884 ± 0.0021 | 0.58 ± 0.018 | –
coculture fibroblast: Hs5 | 0.878 ± 0.015 | 0.803 ± 0.03 | 0.75 ± 0.046 | 0.714 ± 0.052 | –
coculture fibroblast: Hs27A | 0.8912 ± 0.0041 | 0.8152 ± 0.00096 | 0.784 ± 0.0056 | 0.766 ± 0.0057 | –
coculture fibroblast: Hs343T | 0.916 ± 0.063 | 0.806 ± 0.099 | 0.734 ± 0.13 | 0.692 ± 0.12 | –
coculture fibroblast: WS1 | 0.7412 ± 0.0044 | 0.666 ± 0.013 | 0.571 ± 0.02 | 0.535 ± 0.02 | –
